Source: PubChem BioAssay AID686943 (Drosophila RNAi Screening Center, 2013)
Assay: 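Search across the genome for regulators of signalling from receptor tyrosine kinase to ERK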 (primary screen). System: Drosophila S2R+ haemocyte-like cells expressing YFP-tagged ERK (Rolled). Reagents: long dsRNA against Drosophila genes. Treatment: insulin stimulation versus unstimulated cells; dose and duration not given. Measured: 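Per-plate z-scores of phospho-ERK immunostaining normalised to YFP-tagged ERK, measured with and without insulin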. Direction: replicate 1, z-score of dpERK with insulin: higher = more active ERK per ERK-YFP after insulin.
The screen tested about 23,000 reagents; below is an unselected part of those with a known target gene and a result. 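Extra replicates exist only for a retested subset of genes; insulin dose and duration not given; both raised and lowered dpERK matter.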 Names joined by + are all predicted targets of the reagent. Not all columns of the deposit are shown. Not given: the amount of reagent, the time to read-out.

ND-MLRQ [DRSC11913]
- replicate 1, z-score of dpERK with insulin: -1.15

CG14325 [DRSC14804]
- replicate 1, z-score of dpERK with insulin: 0.46

CG31855 [DRSC02968]
- replicate 1, z-score of dpERK with insulin: -1.85

Ctr1B + Poxm [DRSC16245]
- replicate 1, z-score of dpERK with insulin: 0.26

CG2875 [DRSC18231]
- replicate 1, z-score of dpERK with insulin: -0.41

Aplip1 [DRSC07947]
- replicate 1, z-score of dpERK with insulin: 0.39

Aplip1 [DRSC08697]
- replicate 1, z-score of dpERK with insulin: 0.02

Aplip1 [DRSC21587]
- replicate 1, z-score of dpERK with insulin: 0.17

CR34254 [DRSC09562]
- replicate 1, z-score of dpERK with insulin: -0.94

Snx16 [DRSC06984]
- replicate 1, z-score of dpERK with insulin: 1.49

CG33791 + CG18170 [DRSC08523]
- replicate 1, z-score of dpERK with insulin: 1.01

CG33791 + CG18170 [DRSC08601]
- replicate 1, z-score of dpERK with insulin: 0.61

CG3760 [DRSC04415]
- replicate 1, z-score of dpERK with insulin: -1.2

M6 [DRSC11869]
- replicate 1, z-score of dpERK with insulin: 1.77

CR10991 [DRSC12156]
- replicate 1, z-score of dpERK with insulin: -0.44

Pkd2 [DRSC02962]
- replicate 1, z-score of dpERK with insulin: 1.24

RpS3A [DRSC17168]
- replicate 1, z-score of dpERK with insulin: -1.25

S6KL [DRSC19349]
- replicate 1, z-score of dpERK with insulin: 0.02

S6KL [DRSC21578]
- replicate 1, z-score of dpERK with insulin: 0.32

CG16865 [DRSC01904]
- replicate 1, z-score of dpERK with insulin: 0.25

CG7255 [DRSC10790]
- replicate 1, z-score of dpERK with insulin: 0.82

CG15203 [DRSC19650]
- replicate 1, z-score of dpERK with insulin: 0.31

CG7465 [DRSC08592]
- replicate 1, z-score of dpERK with insulin: 0.6

CG7465 [DRSC22320]
- replicate 1, z-score of dpERK with insulin: 0.56

Tsp42El [DRSC06186]
- replicate 1, z-score of dpERK with insulin: 0.48

Tsp33B [DRSC02418]
- replicate 1, z-score of dpERK with insulin: -0.19

Spn42Db [DRSC05009]
- replicate 1, z-score of dpERK with insulin: -0.05

TwdlJ [DRSC15812]
- replicate 1, z-score of dpERK with insulin: 0.6

CG13443 [DRSC06403]
- replicate 1, z-score of dpERK with insulin: 0.23

CG4951 [DRSC15682]
- replicate 1, z-score of dpERK with insulin: -0.29

CG7408 [DRSC10841]
- replicate 1, z-score of dpERK with insulin: 0.09

shep [DRSC08748]
- replicate 1, z-score of dpERK with insulin: 0.72

shep [DRSC09765]
- replicate 1, z-score of dpERK with insulin: 0.68

shep [DRSC09771]
- replicate 1, z-score of dpERK with insulin: 0.16

Gyc89Da [DRSC15008]
- replicate 1, z-score of dpERK with insulin: 1.37

Odj [DRSC16234]
- replicate 1, z-score of dpERK with insulin: -0.46

Ugt316A1 [DRSC10376]
- replicate 1, z-score of dpERK with insulin: -0.86

janA [DRSC16972]
- replicate 1, z-score of dpERK with insulin: -0.82

Nrt [DRSC11237]
- replicate 1, z-score of dpERK with insulin: -0.35

CG12643 [DRSC17849]
- replicate 1, z-score of dpERK with insulin: 0.16
